Experimental data reported in patent US20070275953A1 (priority 2003, published 2007).
Some of these results come from one statement about several compounds together. For at least one compound, name, drawing or mass did not settle the structure. Some ranges recur; such a range may be that of the whole group of compounds.

biological target: T1, HIV-1 reverse transcriptase (Human immunodeficiency virus type 1 group M subtype B, UniProt P04585); experiment: HIV-1 in vitro reverse transcriptase activity (fixed-time RNA dependent DNA polymerase assay); assay type: biochemical; conditions: compound at 10 μM
T1 construct: fixed-time assay for HIV-1 reverse transcriptase RNA dependent DNA polymerase activity; RT was purchased from Calbiochem; purchased Calbiochem CAL382129-500
Method: For the in vitro inhibition studies of the HIV-1 reverse transcriptase activity, stock solutions of the compounds of the present invention were prepared in dimethyl sulfoxide at a final concentration of 10 mM and kept at room temperature. Nevirapine was purchased from Boehringer Ingelheim. Efavirenz was received from the NIH AIDS Research and Reference Reagent Program.
In vitro inhibition studies used a fixed-time assay for HIV-1 reverse transcriptase RNA dependent DNA polymerase activity. RT was purchased from Calbiochem (ref CAL382129-500). One unit of RT corresponds to the amount of enzyme which incorporates one nanomole of [^3H]TTP in 10 minutes at 37° C.
Assays were performed in a final volume of 50 μl. […] Reaction mixtures were incubated at 37° C. for 10 min. The incorporation rate was determined by a standard trichloroacetic acid precipitation procedure (adapted from Current protocols in molecular biology. Eds Wiley, MGH Harvard medical school) and liquid scintillation counting using a Wallac scintillation counter.
The in vitro activity of the compounds, at a final concentration of 10 μM, on the reverse transcriptase (RT) activity of HIV-1 is derivable from the relative (%) reduction in RT activity. Hereby, the RT activity in the absence of any of the compounds is set at 100%.

| SMILES | reduction of in vitro RT activity |
| --- | --- |
| CCc1c(C)[nH]c(=O)c([N+](=O)[O-])c1OC1CC(C)CC(C)C1 (stereo not shown) [Z91inv, 3-nitro-5-ethyl-6-methyl-4-[(3,5-dimethylcyclohexyl)oxy]pyridine-2(1H)-one] | 99-100% |
| CCc1c(C)[nH]c(=O)c(CSC(C)=O)c1OC1CC(C)CC(C)C1 (stereo not shown) [Z114] | 99-100% |
| CCc1c(C)[nH]c(=O)c(N(C)C)c1OC1CC(C)CC(C)C1 (stereo not shown) [Z150, 3-(dimethylamino)-5-ethyl-6-methyl-4-[(3,5-dimethylcyclohexyl)oxy]pyridine-2(1H)-one] | 99-100% |
| CCc1c(C)[nH]c(=O)c(CN=[N+]=[N-])c1OC1CC(C)CC(C)C1 (stereo not shown) [Z153] | 99-100% |
